Reference: the supplement of paper PMC10849652
The other results are listed elsewhere or left out.

By UniProt entry, the sequences of proteins in these tests, tags left out. Where a name states a change or a piece, a line headed by the entry shows the natural chain unless it says otherwise.
UniProt Q6PJT7: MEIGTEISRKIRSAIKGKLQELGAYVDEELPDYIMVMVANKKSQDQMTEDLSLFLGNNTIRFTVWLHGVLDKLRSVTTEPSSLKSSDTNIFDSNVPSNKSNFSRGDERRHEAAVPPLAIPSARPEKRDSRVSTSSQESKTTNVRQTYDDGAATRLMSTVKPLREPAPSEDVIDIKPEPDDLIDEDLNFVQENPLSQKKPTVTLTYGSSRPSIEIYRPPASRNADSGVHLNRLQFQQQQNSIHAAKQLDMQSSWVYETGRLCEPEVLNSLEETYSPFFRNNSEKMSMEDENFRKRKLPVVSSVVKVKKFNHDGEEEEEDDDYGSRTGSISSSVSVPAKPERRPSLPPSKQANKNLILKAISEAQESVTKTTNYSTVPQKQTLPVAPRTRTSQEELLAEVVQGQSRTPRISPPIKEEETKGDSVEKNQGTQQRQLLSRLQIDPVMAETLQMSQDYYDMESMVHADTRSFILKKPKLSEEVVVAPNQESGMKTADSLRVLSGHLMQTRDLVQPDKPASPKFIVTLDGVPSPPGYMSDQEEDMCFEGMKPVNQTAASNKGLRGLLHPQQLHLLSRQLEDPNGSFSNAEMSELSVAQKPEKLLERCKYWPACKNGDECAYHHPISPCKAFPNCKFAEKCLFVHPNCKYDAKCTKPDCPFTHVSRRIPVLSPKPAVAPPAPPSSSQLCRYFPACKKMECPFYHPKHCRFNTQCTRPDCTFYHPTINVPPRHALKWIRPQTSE
UniProt O95070: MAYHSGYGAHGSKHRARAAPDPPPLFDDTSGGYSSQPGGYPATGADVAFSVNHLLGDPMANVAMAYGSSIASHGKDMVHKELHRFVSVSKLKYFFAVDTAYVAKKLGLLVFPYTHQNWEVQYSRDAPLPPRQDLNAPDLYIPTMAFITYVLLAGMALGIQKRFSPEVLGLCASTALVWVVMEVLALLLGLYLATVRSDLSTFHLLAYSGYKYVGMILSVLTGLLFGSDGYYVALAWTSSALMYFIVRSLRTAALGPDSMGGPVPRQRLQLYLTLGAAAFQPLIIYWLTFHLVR
UniProt Q9Y2K1: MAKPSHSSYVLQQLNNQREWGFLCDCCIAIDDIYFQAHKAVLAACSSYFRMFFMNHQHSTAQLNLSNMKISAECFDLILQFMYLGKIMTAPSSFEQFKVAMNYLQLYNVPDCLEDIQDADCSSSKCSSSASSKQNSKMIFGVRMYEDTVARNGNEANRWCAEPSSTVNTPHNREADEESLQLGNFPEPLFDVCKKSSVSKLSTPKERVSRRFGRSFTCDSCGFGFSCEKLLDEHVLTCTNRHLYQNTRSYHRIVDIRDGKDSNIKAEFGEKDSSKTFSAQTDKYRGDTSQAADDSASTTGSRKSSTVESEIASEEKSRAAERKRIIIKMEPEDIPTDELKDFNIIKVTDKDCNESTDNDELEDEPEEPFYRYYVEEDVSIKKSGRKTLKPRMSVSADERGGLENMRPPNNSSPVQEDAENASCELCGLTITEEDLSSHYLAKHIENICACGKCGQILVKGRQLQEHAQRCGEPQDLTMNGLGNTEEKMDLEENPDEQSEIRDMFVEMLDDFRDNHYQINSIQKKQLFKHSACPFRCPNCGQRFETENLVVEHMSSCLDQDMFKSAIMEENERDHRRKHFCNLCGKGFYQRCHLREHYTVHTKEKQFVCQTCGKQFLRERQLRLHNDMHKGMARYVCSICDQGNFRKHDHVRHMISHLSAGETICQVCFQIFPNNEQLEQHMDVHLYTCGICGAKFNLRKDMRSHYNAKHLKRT
UniProt O76080: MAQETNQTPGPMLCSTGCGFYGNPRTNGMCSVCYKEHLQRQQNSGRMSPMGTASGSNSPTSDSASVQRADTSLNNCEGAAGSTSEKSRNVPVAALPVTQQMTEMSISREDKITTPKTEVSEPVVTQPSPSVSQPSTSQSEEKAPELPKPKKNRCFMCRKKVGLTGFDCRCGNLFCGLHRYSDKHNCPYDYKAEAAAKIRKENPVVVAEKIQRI
UniProt Q8IUH4: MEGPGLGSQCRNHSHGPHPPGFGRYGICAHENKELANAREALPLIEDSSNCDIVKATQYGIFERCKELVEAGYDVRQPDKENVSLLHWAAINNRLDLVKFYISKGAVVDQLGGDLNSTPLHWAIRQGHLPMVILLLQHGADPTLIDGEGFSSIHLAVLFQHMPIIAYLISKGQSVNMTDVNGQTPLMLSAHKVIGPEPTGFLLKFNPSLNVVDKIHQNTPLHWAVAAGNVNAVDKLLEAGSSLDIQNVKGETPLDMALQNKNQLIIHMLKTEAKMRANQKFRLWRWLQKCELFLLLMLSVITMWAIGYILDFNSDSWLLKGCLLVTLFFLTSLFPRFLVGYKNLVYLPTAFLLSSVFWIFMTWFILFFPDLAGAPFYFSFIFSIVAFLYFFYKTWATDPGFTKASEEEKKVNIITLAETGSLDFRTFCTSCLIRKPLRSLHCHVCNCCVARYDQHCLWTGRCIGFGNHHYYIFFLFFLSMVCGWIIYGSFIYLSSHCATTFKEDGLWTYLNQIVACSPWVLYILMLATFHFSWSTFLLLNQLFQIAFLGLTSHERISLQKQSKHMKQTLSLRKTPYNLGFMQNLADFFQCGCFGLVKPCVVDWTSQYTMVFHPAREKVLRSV
UniProt Q13105: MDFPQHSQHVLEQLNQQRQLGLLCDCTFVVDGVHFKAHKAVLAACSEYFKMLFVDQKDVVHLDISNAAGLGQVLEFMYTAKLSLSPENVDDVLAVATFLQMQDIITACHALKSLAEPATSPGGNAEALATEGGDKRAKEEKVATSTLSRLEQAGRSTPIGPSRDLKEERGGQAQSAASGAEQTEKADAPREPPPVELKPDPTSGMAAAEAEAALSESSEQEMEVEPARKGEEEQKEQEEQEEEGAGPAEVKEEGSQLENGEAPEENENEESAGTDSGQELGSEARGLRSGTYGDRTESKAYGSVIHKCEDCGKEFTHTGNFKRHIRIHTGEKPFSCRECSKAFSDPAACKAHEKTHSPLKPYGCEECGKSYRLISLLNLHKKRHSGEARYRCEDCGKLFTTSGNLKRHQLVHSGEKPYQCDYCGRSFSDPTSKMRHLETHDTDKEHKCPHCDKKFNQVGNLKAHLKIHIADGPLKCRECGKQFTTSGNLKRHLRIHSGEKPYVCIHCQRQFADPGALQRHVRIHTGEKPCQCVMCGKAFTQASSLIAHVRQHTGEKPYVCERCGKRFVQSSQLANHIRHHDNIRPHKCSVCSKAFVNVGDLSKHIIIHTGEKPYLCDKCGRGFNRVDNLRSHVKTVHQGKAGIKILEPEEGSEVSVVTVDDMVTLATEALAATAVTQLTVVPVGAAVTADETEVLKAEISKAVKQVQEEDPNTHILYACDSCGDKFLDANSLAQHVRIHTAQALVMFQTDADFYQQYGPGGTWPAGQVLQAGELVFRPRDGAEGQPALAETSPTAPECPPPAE
UniProt O75191: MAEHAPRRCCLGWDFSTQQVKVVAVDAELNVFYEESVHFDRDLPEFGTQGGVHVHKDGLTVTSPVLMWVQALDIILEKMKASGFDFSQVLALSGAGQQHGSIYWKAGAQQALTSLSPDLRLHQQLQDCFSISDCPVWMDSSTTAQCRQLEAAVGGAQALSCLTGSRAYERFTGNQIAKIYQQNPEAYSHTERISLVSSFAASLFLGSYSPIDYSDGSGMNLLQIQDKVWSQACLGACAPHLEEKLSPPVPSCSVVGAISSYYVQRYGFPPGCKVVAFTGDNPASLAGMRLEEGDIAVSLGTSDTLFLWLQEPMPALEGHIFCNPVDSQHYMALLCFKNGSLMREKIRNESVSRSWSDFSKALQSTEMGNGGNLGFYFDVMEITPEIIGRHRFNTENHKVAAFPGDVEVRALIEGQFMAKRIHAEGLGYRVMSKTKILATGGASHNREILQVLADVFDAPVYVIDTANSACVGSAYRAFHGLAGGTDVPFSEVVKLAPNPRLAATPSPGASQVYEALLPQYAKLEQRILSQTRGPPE
UniProt P58557: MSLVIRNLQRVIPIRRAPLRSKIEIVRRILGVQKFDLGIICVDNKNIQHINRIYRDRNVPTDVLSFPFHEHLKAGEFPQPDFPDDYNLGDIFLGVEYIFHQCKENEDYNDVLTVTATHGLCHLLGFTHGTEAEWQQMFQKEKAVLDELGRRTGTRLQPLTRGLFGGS
UniProt P16989, whole entry, looked up: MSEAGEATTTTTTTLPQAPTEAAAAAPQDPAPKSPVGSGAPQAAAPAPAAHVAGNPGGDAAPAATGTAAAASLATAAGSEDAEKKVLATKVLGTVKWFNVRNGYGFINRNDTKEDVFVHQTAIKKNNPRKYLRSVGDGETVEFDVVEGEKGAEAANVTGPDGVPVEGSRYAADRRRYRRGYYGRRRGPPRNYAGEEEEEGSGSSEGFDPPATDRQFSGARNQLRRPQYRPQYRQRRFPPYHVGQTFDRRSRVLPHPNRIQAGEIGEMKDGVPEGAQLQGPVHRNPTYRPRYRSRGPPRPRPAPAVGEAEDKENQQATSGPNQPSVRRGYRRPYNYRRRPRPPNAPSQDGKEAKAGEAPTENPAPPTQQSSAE
UniProt O43167: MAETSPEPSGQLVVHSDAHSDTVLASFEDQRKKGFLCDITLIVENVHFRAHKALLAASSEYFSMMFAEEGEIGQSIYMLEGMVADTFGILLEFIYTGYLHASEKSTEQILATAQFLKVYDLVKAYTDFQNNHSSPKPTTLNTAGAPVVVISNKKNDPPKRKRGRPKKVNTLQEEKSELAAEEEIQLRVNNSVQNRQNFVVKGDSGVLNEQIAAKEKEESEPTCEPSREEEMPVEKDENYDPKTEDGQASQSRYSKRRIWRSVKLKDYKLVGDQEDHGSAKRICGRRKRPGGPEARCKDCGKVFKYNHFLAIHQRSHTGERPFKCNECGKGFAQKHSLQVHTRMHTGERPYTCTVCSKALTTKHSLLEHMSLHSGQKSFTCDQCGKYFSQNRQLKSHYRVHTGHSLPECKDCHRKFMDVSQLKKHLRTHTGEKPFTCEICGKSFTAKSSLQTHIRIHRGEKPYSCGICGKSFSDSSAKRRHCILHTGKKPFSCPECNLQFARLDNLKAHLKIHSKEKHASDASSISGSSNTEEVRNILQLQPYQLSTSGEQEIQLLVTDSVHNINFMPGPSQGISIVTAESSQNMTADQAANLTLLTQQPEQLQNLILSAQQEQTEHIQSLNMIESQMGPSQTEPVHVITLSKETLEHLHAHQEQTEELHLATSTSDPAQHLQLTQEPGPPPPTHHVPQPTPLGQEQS
UniProt Q96K21: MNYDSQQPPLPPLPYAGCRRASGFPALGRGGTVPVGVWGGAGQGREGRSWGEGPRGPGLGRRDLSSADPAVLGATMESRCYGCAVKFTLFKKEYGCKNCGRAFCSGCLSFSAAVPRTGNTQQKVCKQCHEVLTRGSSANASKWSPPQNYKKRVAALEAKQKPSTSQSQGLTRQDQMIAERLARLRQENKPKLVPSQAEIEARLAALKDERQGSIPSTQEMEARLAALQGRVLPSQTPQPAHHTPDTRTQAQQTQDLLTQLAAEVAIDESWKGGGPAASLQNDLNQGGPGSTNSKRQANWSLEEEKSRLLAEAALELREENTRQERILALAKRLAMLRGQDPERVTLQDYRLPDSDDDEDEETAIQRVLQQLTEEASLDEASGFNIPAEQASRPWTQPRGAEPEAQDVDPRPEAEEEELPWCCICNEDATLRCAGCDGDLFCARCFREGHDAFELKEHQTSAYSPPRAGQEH
UniProt Q9Y2T7, whole entry, looked up: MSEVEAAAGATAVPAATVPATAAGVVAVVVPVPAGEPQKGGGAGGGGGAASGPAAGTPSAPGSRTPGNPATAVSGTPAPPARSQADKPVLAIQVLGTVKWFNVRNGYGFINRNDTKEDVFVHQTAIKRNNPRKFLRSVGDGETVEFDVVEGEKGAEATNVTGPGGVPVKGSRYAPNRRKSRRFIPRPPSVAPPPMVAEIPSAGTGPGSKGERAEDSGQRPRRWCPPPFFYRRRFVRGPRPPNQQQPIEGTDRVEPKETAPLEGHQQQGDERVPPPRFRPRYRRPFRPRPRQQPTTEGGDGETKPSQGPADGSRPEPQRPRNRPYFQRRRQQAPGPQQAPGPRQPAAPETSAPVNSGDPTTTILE
UniProt O15156: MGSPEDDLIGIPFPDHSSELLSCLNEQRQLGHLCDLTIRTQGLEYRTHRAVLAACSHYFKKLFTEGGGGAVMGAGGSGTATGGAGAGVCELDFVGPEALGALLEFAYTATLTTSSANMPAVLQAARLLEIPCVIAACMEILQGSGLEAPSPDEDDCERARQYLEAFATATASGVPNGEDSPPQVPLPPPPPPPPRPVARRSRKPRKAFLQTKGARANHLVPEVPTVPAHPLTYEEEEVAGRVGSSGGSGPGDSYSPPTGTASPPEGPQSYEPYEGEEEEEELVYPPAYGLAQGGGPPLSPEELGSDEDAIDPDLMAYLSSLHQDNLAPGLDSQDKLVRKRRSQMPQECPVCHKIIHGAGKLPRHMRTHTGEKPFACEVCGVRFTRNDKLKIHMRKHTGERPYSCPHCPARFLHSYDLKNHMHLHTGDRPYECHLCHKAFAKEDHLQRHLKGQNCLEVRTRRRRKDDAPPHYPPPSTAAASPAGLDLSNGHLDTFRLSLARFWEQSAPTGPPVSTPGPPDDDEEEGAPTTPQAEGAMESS

Tests used:
Assay in all cases: log2 fold change, soluble protein after heating vs DMSO (PISA); higher = thermal stabilisation; K562 lysate, 10 uM; active = over 0.2 and 3.5 SD of the protein, either way, in both replicates (recomputed)
erlotinib = compound: C#Cc1cccc(Nc2ncnc3cc(OCCOC)c(OCCOC)cc23)c1 [erlotinib]
Summary of the method: (§1)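 K562 pellets were dounce-homogenised in PBS pH 7.4 containing 1 mM MgCl2, and the crude extract, at 1 mg/mL protein, was exposed to 10 μM compound for 30 min. Aliquots were heated for 3 min across 48°C-58°C, pooled, brought to 0.5% NP-40 at 4°C and spun at 21,000xg for 90 min, with the supernatant taken as soluble protein. TMTpro 16plex LC-MS/MS with equalised channel sums quantified that protein. Values are log-two fold changes in thermal stability relative to solvent controls, taken from duplicates.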

[1] = compound: C/C(=N\NC(=O)C1=CC(=CC=C1)S(=O)(=O)N2CCOCC2)/C3=C(C=CC(=C3)Cl)O
Summary of the method: as §1

[2] = compound: C1=CC(=CC=C1C2=NC3=C(N2)C=C(C=C3)C(=O)N)OC4=CC=C(C=C4)Cl
Summary of the method: as §1

[3] = compound: C1=CC2=C(C=CC(=C2)/C=C\3/C(=O)NC(=NCC4=CC=CS4)S3)N=C1
Summary of the method: as §1

[4] = compound: C1=CC2=NC=CN=C2C=C1/C=C/3\C(=O)NC(=O)S3
Summary of the method: as §1

[5] = compound: C1=CC=C(C=C1)C2=NC(=C(N2)C3=CC=NC=C3)C4=CC(=C(C=C4)Cl)O
Summary of the method: as §1

[6] = compound: C1=CC=C2C(=C1)C3=NNC4=CC=CC(=C43)C2=O
Summary of the method: as §1

[7] = compound: C1CCN(C1)C(=O)NC2=CC=CC(=C2)NC3=NC=C(C(=N3)NCCC4=CN=CN4)Br
Summary of the method: as §1

[8] = compound: C1CN(CCC1(CC2=CC=C(C=C2)Cl)N)C3=NC=NC4=C3C=CN4
Summary of the method: as §1

IRAK-1-4 Inhibitor I = compound: C1COCCN1CCN2C3=CC=CC=C3N=C2NC(=O)C4=CC(=CC=C4)[N+](=O)[O-] [IRAK-1-4 Inhibitor I]
Summary of the method: as §1

Measured: log2 fold change

ZC3H14 (UniProt Q6PJT7)
inactive: erlotinib -0.008 | [1] -0.037 | [2] 0 | [3] 0.044 | [4] -0.002 | [5] 0.01 | [6] 0.014 | [7] 0.02 | [8] 0.017 | IRAK-1-4 Inhibitor I 0.002

YIF1A (UniProt O95070)
inactive: erlotinib -0.058 | [1] -0.098 | [2] -0.025 | [3] 0.038 | [4] 0.115 | [5] -0.02 | [6] -0.161 | [7] 0.01 | [8] -0.028 | IRAK-1-4 Inhibitor I 0.059

ZBTB1 (UniProt Q9Y2K1)
inactive: erlotinib -0.073 | [2] -0.165 | [4] 0.053 | [5] 0.033 | [7] 0.04 | [8] -0.022 | IRAK-1-4 Inhibitor I 0.004

YJU2 (UniProt Q9BW85)
inactive: erlotinib 0.004 | [1] 0 | [2] 0.056 | [3] 0.021 | [4] -0.039 | [5] 0.037 | [6] -0.029 | [7] -0.016 | [8] 0.023 | IRAK-1-4 Inhibitor I -0.038

YIPF4 (UniProt Q9BSR8)
inactive: erlotinib -0.055 | [1] 0.025 | [2] 0.021 | [3] 0.035 | [4] -0.004 | [5] 0.006 | [6] 0.054 | [7] -0.027 | [8] 0.039 | IRAK-1-4 Inhibitor I 0.054

ZC2HC1A (UniProt Q96GY0)
inactive: erlotinib 0 | [1] -0.134 | [2] 0.058 | [3] 0.18 | [4] 0.073 | [5] -0.043 | [6] -0.1 | [7] -0.054 | [8] 0.009 | IRAK-1-4 Inhibitor I -0.012

ZFAND5 (UniProt O76080)
inactive: erlotinib -0.079 | [1] -0.048 | [2] -0.054 | [3] -0.009 | [4] -0.003 | [5] 0.032 | [6] 0.002 | IRAK-1-4 Inhibitor I -0.012

ZDHHC13 (UniProt Q8IUH4)
inactive: erlotinib 0.245 | [1] 0.058 | [2] -0.146 | [3] 0.076 | [4] -0.111 | [6] 0.096

ZFC3H1 (UniProt O60293)
inactive: erlotinib 0.073 | [1] 0.249 | [2] 0.033 | [3] -0.069 | [4] -0.066 | [5] 0 | [6] -0.082 | [7] -0.047 | [8] -0.115 | IRAK-1-4 Inhibitor I 0.012

ZC3H13 (UniProt Q5T200)
inactive: erlotinib 0.081 | [1] 0.003 | [2] 0.034 | [3] -0.027 | [4] -0.071 | [5] 0.075 | [6] -0.045 | [7] -0.016 | [8] -0.043 | IRAK-1-4 Inhibitor I 0.007

XPR1 (UniProt Q9UBH6)
inactive: erlotinib 0.043 | [1] 0.049 | [2] 0.019 | [3] 0.081 | [4] -0.051 | [5] 0.049 | [6] 0.014 | [7] -0.042 | [8] -0.024 | IRAK-1-4 Inhibitor I 0.012

ZBTB5 (UniProt O15062)
inactive: erlotinib 0.037 | [1] 0.076 | [2] 0.046 | [3] -0.078 | [5] -0.021 | [6] 0.238 | [7] 0.08 | [8] -0.144 | IRAK-1-4 Inhibitor I -0.04

ZBED5 (UniProt Q49AG3)
inactive: erlotinib -0.132 | [2] 0.041

YPEL5 (UniProt P62699)
inactive: erlotinib 0.007 | [1] 0.09 | [2] -0.049 | [3] 0.002 | [4] -0.019 | [5] -0.048 | [6] 0.072 | [7] -0.048 | [8] 0.047 | IRAK-1-4 Inhibitor I -0.043

ZBTB17 isoform 2 (UniProt Q13105)
inactive: erlotinib -0.125 | [2] -0.047 | [4] -0.023

YWHAZ (UniProt E7ESK7)
inactive: erlotinib -0.055 | [1] -0.17 | [2] -0.058 | [3] 0.093 | [4] -0.208 | [6] 0.075 | [7] 0.085 | [8] -0.063

XRCC1 (UniProt P18887)
inactive: erlotinib -0.012 | [1] 0.029 | [2] -0.063 | [3] 0.023 | [4] -0.026 | [5] 0 | [6] -0.01 | [7] -0.028 | [8] -0.014 | IRAK-1-4 Inhibitor I -0.006

XYLB (UniProt O75191)
inactive: erlotinib -0.024 | [1] 0.002 | [2] -0.036 | [3] -0.009 | [4] 0.092 | [5] -0.049 | [6] -0.147 | [7] -0.046 | [8] 0.061 | IRAK-1-4 Inhibitor I 0.035

ZFYVE27 isoform 2 (UniProt Q5T4F4)
inactive: erlotinib -0.092 | [1] -0.01 | [2] 0.165 | [3] 0.035 | [4] -0.083 | [5] -0.006 | [6] -0.004 | [7] -0.005 | [8] 0.066 | IRAK-1-4 Inhibitor I -0.045

YBEY (UniProt P58557)
inactive: erlotinib 0.101 | [1] -0.164 | [2] 0.009 | [3] -0.039 | [6] -0.031 | [7] -0.011 | [8] 0.111

XRCC3 (UniProt O43542)
inactive: erlotinib 0.064 | [1] -0.128 | [2] 0.08 | [3] -0.025 | [4] -0.05 | [5] 0.009 | [6] -0.033 | IRAK-1-4 Inhibitor I 0.028

YBX3 isoform 2 (UniProt P16989)
inactive: erlotinib -0.038 | [1] -0.069 | [2] 0.008 | [3] 0.049 | [4] -0.033 | [5] -0.081 | [6] -0.027 | [7] -0.003 | [8] -0.01 | IRAK-1-4 Inhibitor I -0.013

ZEB1 isoform 2 (UniProt P37275)
inactive: erlotinib -0.008 | [1] -0.064 | [2] 0.104 | [3] -0.094 | [4] 0.019 | [5] 0.037 | [6] -0.073 | IRAK-1-4 Inhibitor I 0.052

ZBTB11 (UniProt O95625)
inactive: erlotinib -0.023 | [1] -0.268 | [2] -0.083 | [3] -0.068 | [6] -0.286

ZBTB24 (UniProt O43167)
inactive: erlotinib 0.037 | [2] -0.023 | [4] -0.172 | [5] -0.072 | [7] 0.088 | [8] -0.144 | IRAK-1-4 Inhibitor I 0.09

ZBTB40 (UniProt Q9NUA8)
inactive: erlotinib -0.044 | [1] -0.019 | [2] -0.014 | [3] -0.075 | [5] -0.045 | [6] -0.017 | IRAK-1-4 Inhibitor I -0.048

2 entries drawn at random from those above:
YBX3 isoform 2 (UniProt P16989)
inactive: erlotinib -0.038 | [1] -0.069 | [2] 0.008 | [3] 0.049 | [4] -0.033 | [5] -0.081 | [6] -0.027 | [7] -0.003 | [8] -0.01 | IRAK-1-4 Inhibitor I -0.013

ZEB1 isoform 2 (UniProt P37275)
inactive: erlotinib -0.008 | [1] -0.064 | [2] 0.104 | [3] -0.094 | [4] 0.019 | [5] 0.037 | [6] -0.073 | IRAK-1-4 Inhibitor I 0.052

More records

YAF2 isoform 5 (UniProt Q8IY57)
inactive: erlotinib 0.012 | [1] -0.28 | [2] 0.037 | [3] 0.058 | [4] 0.124 | [5] -0.033 | [6] 0.051 | [7] 0.111 | [8] 0.002 | IRAK-1-4 Inhibitor I -0.147

ZFP36L2 (UniProt P47974)
inactive: [1] 0.01 | [3] -0.002 | [4] -0.213 | [5] -0.212 | [6] -0.017 | [7] -0.052 | [8] 0.014 | IRAK-1-4 Inhibitor I -0.078

ZFYVE19 isoform 3 (UniProt Q96K21)
inactive: [4] 0.038

YBX2 (UniProt Q9Y2T7)
inactive: [4] 0.037

ZFAND1 (UniProt Q8TCF1)
inactive: [4] 0.171 | [5] 0.066 | [7] 0.004 | [8] 0.079 | IRAK-1-4 Inhibitor I -0.018

ZBTB7B isoform 2 (UniProt O15156)
inactive: [4] 0.218

YIPF2 (UniProt Q9BWQ6)
inactive: erlotinib 0.121 | [2] 0.061 | [5] -0.043 | IRAK-1-4 Inhibitor I 0.115

ZFAT (UniProt Q9P243)
inactive: erlotinib 0.077 | [2] 0.1 | [7] -0.216 | [8] -0.072
